In this assay the target is Latent TGF-β binding protein-1 (mouse (endogenous in Swiss 3T3)) (UniProt Q8CG19). Briefly: co-IP; LTBP-1 immunoprecipitated with Ab-39 from lysates of Swiss 3T3 cells induced (+) or non-induced (-) for TG2 expression; reducing SDS-PAGE, blot for LTBP-1 and TG2.

Chains of the proteins cited; added tags and fusions are not shown. Residues count along the entry.
UniProt Q8CG19, residues 24-1712: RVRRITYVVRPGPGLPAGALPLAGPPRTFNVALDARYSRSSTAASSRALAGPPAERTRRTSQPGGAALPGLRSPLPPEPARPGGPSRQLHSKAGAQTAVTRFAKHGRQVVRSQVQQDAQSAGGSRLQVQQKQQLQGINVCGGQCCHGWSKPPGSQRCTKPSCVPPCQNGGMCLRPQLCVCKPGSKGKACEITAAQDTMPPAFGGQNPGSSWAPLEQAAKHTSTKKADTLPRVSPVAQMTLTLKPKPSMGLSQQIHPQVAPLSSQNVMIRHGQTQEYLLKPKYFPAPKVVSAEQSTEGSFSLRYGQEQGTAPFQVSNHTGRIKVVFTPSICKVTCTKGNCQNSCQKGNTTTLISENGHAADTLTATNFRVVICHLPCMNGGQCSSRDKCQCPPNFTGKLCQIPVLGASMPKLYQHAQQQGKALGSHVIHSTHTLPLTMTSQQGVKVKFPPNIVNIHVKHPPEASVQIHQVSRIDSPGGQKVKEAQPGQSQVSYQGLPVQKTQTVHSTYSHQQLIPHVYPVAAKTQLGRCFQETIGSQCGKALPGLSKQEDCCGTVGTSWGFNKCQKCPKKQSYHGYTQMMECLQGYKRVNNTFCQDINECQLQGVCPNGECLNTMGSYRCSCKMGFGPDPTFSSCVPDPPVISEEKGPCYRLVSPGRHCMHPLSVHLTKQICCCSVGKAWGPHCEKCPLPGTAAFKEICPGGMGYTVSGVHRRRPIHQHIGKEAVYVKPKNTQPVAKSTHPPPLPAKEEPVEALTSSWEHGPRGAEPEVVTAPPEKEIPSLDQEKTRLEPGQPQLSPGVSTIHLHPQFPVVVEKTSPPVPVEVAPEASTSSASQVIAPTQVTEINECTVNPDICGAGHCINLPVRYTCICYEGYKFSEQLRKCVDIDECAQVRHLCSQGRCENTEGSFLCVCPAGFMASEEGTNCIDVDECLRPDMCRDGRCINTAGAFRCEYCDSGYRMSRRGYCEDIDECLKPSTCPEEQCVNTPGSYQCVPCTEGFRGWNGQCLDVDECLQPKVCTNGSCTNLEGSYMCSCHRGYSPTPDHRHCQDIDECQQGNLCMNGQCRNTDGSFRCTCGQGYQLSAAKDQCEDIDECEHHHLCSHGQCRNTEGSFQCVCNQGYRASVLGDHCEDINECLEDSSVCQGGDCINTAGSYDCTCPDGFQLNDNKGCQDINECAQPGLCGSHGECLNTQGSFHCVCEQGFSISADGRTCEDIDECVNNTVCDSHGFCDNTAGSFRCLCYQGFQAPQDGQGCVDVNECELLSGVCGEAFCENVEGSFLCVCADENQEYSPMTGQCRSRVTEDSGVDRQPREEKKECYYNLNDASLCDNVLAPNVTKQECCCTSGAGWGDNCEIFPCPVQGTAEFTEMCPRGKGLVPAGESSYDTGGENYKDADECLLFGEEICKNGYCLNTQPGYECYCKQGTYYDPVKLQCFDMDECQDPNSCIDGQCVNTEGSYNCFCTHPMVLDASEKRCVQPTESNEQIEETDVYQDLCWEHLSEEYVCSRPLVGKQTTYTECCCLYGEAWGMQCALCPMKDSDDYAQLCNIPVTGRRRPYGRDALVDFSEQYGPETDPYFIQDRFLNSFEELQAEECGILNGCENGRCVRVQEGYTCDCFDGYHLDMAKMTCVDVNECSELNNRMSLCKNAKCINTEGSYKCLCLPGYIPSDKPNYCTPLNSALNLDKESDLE

Drawing on publication PMC5046136, this text covers binding for 1 molecule.

Results are given in words; binding and its absence hold for the method and conditions named. Binding seen in cells or lysates may run through a third protein. Some results given as binding are weak or reduced against the parent protein; the word gives no strength.

B1: Transglutaminase-2 expressed in Swiss 3T3 fibroblasts (clone TG3) (enzyme, UniProt P21980 1-687)
chain: MAEELVLERCDLELETNGRDHHTADLCREKLVVRRGQPFWLTLHFEGRNYEASVDSLTFSVVTGPAPSQEAGTKARFPLRDAVEEGDWTATVVDQQDCTLSLQLTTPANAPIGLYRLSLEASTGYQGSSFVLGHFILLFNAWCPADAVYLDSEEERQEYVLTQQGFIYQGSAKFIKNIPWNFGQFEDGILDICLILLDVNPKFLKNAGRDCSRRSSPVYVGRVVSGMVNCNDDQGVLLGRWDNNYGDGVSPMSWIGSVDILRRWKNHGCQRVKYGQCWVFAAVACTVLRCLGIPTRVVTNYNSAHDQNSNLLIEYFRNEFGEIQGDKSEMIWNFHCWVESWMTRPDLQPGYEGWQALDPTPQEKSEGTYCCGPVPVRAIKEGDLSTKYDAPFVFAEVNADVVDWIQQDDGSVHKSINRSLIVGLKISTKSVGRDEREDITHTYKYPEGSSEEREAFTRANHLNKLAEKEETGMAMRIRVGQSMNMGSDFDVFAHITNNTAEEYVCRLLLCARTVSYNGILGPECGTKYLLNLNLEPFSEKSVPLCILYEKYRDCLTESNLIKVRALLVEPVINSYLLAERDLYLENPEIKIRILGEPKQKRKLVAEVSLQNPLPVALEGCTFTVEGAGLTEEQKTVEIPDPVEAGEEVKVRMDLLPLHMGLHKLVVNFESDKLKAVKGFRNVIIGPA
As to B1, the binding entry is on record as “binds”.
